Test results: the supplement of paper PMC5949888
Most values lie at the floor of the assay. Slopes are relative: functional sequences can read slightly below zero.

The substances below were run on Saccharomyces cerevisiae PS128 hsf1 delta, HSF1(1-493) fusion (assay: growth estimate (transactivation domain function in HSF1 fusion, heat-shock survival) (a.u. (slope of normalised read count over time)); higher = stronger growth at 37°C, i.e. more transactivation activity). Conditions: library: random library.
For ISRAATRVQRTCPNCLTTIA, the growth estimate was -0.246. For GIWPSHGDSLNLRNCSACYW, the growth estimate was -0.178. With IREGGPGEVTEAVVVRVVGE the growth estimate was < -0.25. With NRCMRSSECSTK the growth estimate was < -0.25. With GYTRGTEYSNHGRINSREVG the growth estimate was < -0.25. For RCMRGMGVPAPRNACS, the growth estimate was < -0.25. VAVRRPN was tested, and the growth estimate was < -0.25. NQSRPVYLRQGPHCT was tested, and the growth estimate was < -0.25. In the case of GLTGRWGKA, the growth estimate is reported as < -0.25. In the case of RRDVLHPQEQNSCSFFPDHR, the growth estimate is reported as < -0.25. For SKT, the growth estimate was < -0.25. In the case of HVAALRGFMRHSERIFWLAV, the growth estimate is reported as < -0.25. With IYNSFFVRLTVG the growth estimate was < -0.25. Work on RSGVSAD yielded a growth estimate of -0.246. For GAPNLLTVKEDWNGIRIAFF, the growth estimate was < -0.25. With RRGLLFRRG the growth estimate was < -0.25. For VSN, the growth estimate was < -0.25. LRPHEGHRLAHPTLSNHLCI was tested, and the growth estimate was < -0.25. In the case of ALIWLARNPIRGTRTIMRFG, the growth estimate is reported as < -0.25. For EWIKHVGRPPEAVPTHGLPD, the growth estimate was < -0.25. With TYRPSVRGSSWEGVSNLHRL the growth estimate was < -0.25. VSIDVPSLLS was tested, and the growth estimate was < -0.25. With FSYYIYERGQGCHLSLFDSV the growth estimate was < -0.25. IYSSSGTLIRSAGSYISPQN gave a growth estimate of -0.243. Work on WVYSMSMFGVLGGHVQCLLV yielded a growth estimate of -0.236. With DGYLSRRPNVSMVTFNLWIH the growth estimate was < -0.25. RDMGCVQEGTTHLLSSRPRV was tested, and the growth estimate was < -0.25. For KPTL, the growth estimate was < -0.25. RPSRAHG was tested, and the growth estimate was < -0.25. With TRSSICTQTLVNSRVYPTRA the growth estimate was < -0.25. For TRSIYNFLIRVVLV, the growth estimate was < -0.25. With LMPAAWRGLVLRFGLRSMSG the growth estimate was < -0.25. For NTPIDFPSAWTCTLITQRV, the growth estimate was < -0.25. For SKPVVAS, the growth estimate was < -0.25. In the case of TVDGFLWFAILYCT, the growth estimate is reported as < -0.25. YHRFGKCTLGPSA was tested, and the growth estimate was < -0.25. For APVTARLGLAFYSMGPSIAC, the growth estimate was < -0.25. MTRYRYGQAPLSIGAAD was tested, and the growth estimate was < -0.25. In the case of PRVHLSHRGSA, the growth estimate is reported as < -0.25. MERRRRFWRKMCLQSMADAC was tested, and the growth estimate was < -0.25. In the case of LCEHHRAYTFRVYDQMFWRY, the growth estimate is reported as < -0.25. With FPNDRMIRYGSCGGSPFLSG the growth estimate was < -0.25. Work on MYPEPLLYV yielded a growth estimate of -0.246. For HSH, the growth estimate was < -0.25. With CLLVRMRCR the growth estimate was < -0.25. RDFDRG was tested, and the growth estimate was < -0.25. For LETVSAVTFVLT, the growth estimate was < -0.25. With IERN the growth estimate was < -0.25. With TVTEFNHPRVLIEASFKAEN the growth estimate was < -0.25. With WYREHDN the growth estimate was < -0.25. For VPHVGNGNAYPIKSPKA, the growth estimate was < -0.25. For HLSLKPMRFLFI, the growth estimate was < -0.25. AVRTGELSERL was tested, and the growth estimate was < -0.25. In the case of TEVFPVREVKPCLRHPCR, the growth estimate is reported as < -0.25. ARSTAGRPDTI was tested, and the growth estimate was < -0.25. In the case of GTA, the growth estimate is reported as < -0.25. In the case of DSPESSN, the growth estimate is reported as < -0.25. For QGVDER, the growth estimate was < -0.25. For SLVSILKSDIPLVPACDFGT, the growth estimate was < -0.25. In the case of DVREGKGVTNRA, the growth estimate is reported as < -0.25. In the case of QSSGA, the growth estimate is reported as < -0.25. RDHILTNLPRSDNMTVM was tested, and the growth estimate was -0.163. With IGSTTSCMLLRTMHAP the growth estimate was -0.0747. With TNLIN the growth estimate was < -0.25. For NSRFREKSGGAIGVVTAGHC, the growth estimate was < -0.25. GAIWGFNL was tested, and the growth estimate was < -0.25. With QIT the growth estimate was < -0.25. In the case of SVPSTPTTSC, the growth estimate is reported as < -0.25. With SWQVD the growth estimate was < -0.25. For LHVFCFARVHAKQEQYAGVV, the growth estimate was < -0.25. For QIQTNDDRGGFSRGN, the growth estimate was < -0.25. With AQAD the growth estimate was < -0.25. TRGVVQGSIECPGALRPLRI was tested, and the growth estimate was < -0.25. TSDDVRSSKSYTFNNCAKGP was tested, and the growth estimate was < -0.25. GSDEAN was tested, and the growth estimate was < -0.25. For NLRPNTWTRFHRHPLRERRR, the growth estimate was < -0.25. With PGFTVYDRQPNWYLSYTPTA the growth estimate was < -0.25. With RYNVHSNASELGSAAWTEGR the growth estimate was < -0.25. In the case of AMWTMVRIIGPLWRD, the growth estimate is reported as < -0.25. In the case of EQGCIAVYSNRRSYFEATPY, the growth estimate is reported as < -0.25. For RREAARWLIL, the growth estimate was < -0.25. ARVLGVM was tested, and the growth estimate was < -0.25. GRAQSGSASSFSTSCHPSTD was tested, and the growth estimate was < -0.25. For ERVSVKLRWSSITVCNYHVG, the growth estimate was < -0.25. For NSPNSCPSFRYRLLASLLWS, the growth estimate was < -0.25. YNIRGCWSRRAQSWAPSPSK was tested, and the growth estimate was < -0.25. With ESLQSNSAVVNYTLCKSRIK the growth estimate was < -0.25. With GQVGLLISRFRKLANSEGVA the growth estimate was < -0.25. In the case of VRIRRQE, the growth estimate is reported as < -0.25. In the case of RLRVD, the growth estimate is reported as < -0.25. With RTDKPDIKLHRKSLA the growth estimate was < -0.25. With DLICYKIDQLVLVARLNTFG the growth estimate was < -0.25. LVREYSGRYLSESVVDGVSW was tested, and the growth estimate was < -0.25. IMIV was tested, and the growth estimate was < -0.25. In the case of LKDFSLPRAQSPCEDSIVLF, the growth estimate is reported as < -0.25. With AVLGPVDNESAPAFMQAWAP the growth estimate was < -0.25. LSI was tested, and the growth estimate was < -0.25. With VGMDSVMSARVSLCRQAKGT the growth estimate was < -0.25. TWTYRYQYIERLRALEAPMH was tested, and the growth estimate was < -0.25. ESRTSVRLWLKPLAYQRFRR was tested, and the growth estimate was < -0.25.
